Measured values reported in paper PMC8038949, “Structural basis for the DNA-binding activity of human ARID4B Tudor domain”.

Experiments:
[1] = biological target: T1, ARID4B TD151 (Homo sapiens) (UniProt Q4LE39); assay: ITC; conditions: 50 mM Tris-HCl pH 7.6, 50 mM NaCl (buffer A); ITC 25 C; recombinant protein; residues 1-151
T1 sequence (looked up): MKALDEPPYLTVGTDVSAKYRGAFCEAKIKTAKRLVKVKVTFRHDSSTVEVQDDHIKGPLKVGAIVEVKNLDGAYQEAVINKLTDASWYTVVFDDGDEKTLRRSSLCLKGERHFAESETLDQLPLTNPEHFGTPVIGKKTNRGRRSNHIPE

[2] = biological target: T2, ARID4B TD121 (Homo sapiens) (UniProt Q4LE39); assay: EMSA; conditions: 50 mM Tris-HCl pH 7.6, 50 mM NaCl (buffer A); EMSA 4 C, 12 uM DNA, 8% native gel in TBE; recombinant protein; residues 1-121
T2 sequence (looked up): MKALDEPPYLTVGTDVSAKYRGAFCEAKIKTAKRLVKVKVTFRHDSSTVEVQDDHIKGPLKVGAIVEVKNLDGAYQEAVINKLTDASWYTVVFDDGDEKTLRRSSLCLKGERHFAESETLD

Row | Sequence | Kd [1] [µM] | binding result [2]
1 | CGCAATTATATATTACGG (double strand) [dsAT18] | 8 | 
2 | CTCAGGTCAAAGGTCACG / TCGTGACCTTTGACCTGA [dsDNA1] |  | binds more weakly
3 | CGCTTTAAAAAATTTCGG (double strand) [dsA-tract] | 8 | 
4 | CGCACCGATCCGTGACGG (double strand) [dsGC18] | 16 | 

For some of these results: Weaker means in comparison with the reference protein, sequence or condition of that experiment. Tags and fusion partners may be left off the protein sequences shown. For some of these results: For at least one entry, the source does not settle the construct or the ends of the probe.
